In the supplement of paper PMC7125110:
± gives the standard error. Many entries were measured with a wide error.

B1: glmS ribozyme (parent)
chain: AUAAAAGCGCCAGAACUACAGAAAUGUAGUUGACGAGGAGGAGGUUUAUCGAAUUUUCGGCGGAUGCCUCCAAA

Variants of: B1
Test: self-cleavage kobs at 2500 uM GlcN6P; higher = faster cleavage; RNA array
Details: with glucosamine-6-phosphate
Procedure, shortened: (§1)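 Tiles of sequenced MiSeq chips were imaged over ~14 h at 37 °C. On them, barcoded ribozyme variants had been transcribed in situ by E. coli RNA polymerase and were tracked via a hybridised Cy3 probe while glucosamine-6-phosphate (40 μM to 10 mM) in HEPES/KCl/Mg(OAc)2 buffer flowed in. Per-tile medians, normalised to baseline and to non-cleaving reference variants, were fit to one- or two-exponential decays for kobs, and weighted Michaelis–Menten fits gave kcat and KM.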

Variant	self-cleavage kobs at 2500 uM GlcN6P
G13C U30G	2.34e-05 ± 1.7e-05 s⁻¹
C10U G62A C70U C71G	3.23e-05 ± 2.4e-05 s⁻¹
C10A A15G G32U C70G	5.31e-05 ± 2.8e-05 s⁻¹
A12G C16A	2.62e-05 ± 1.8e-05 s⁻¹
C11G C58A C68A	3.45e-05 ± 2e-05 s⁻¹
A12C A53G A64U	4.05e-05 ± 2.3e-05 s⁻¹
A12U U30A G32C C58G	4.29e-05 ± 2.4e-05 s⁻¹
G13C C58U C71U	3.09e-05 ± 2.5e-05 s⁻¹
C11U C34G C50G C67G C68U	3.25e-05 ± 2.3e-05 s⁻¹
U57A C61G C67U U69A	3.66e-05 ± 3.3e-05 s⁻¹
C11U G35U C68G C70A	4.38e-05 ± 2.7e-05 s⁻¹
A12U U56A A64C C67U	1.81e-05 ± 1.6e-05 s⁻¹
A14C U31G G32U C70G	5.39e-05 ± 2.8e-05 s⁻¹
C10A A36C C68G	2.62e-05 ± 1.9e-05 s⁻¹
G13C A53C	2.21e-05 ± 1.8e-05 s⁻¹
A12G C16U G32A	1.98e-05 ± 1.4e-05 s⁻¹
A6G U57A C68G	0.000122 ± 8.2e-05 s⁻¹
A14U U47G A52G A64G	3.37e-05 ± 1.9e-05 s⁻¹
G59U C67G	2.68e-05 ± 1.5e-05 s⁻¹
A6C A12U A14G C16U	9.97e-05 ± 5.8e-05 s⁻¹
G13A C34G C50U C67G	6.42e-05 ± 4.2e-05 s⁻¹
G13A G29U C58U	5.14e-05 ± 3.9e-05 s⁻¹
A6U G59C C67G	8.7e-05 ± 4.6e-05 s⁻¹
A12G C16G C50G C68G	6.14e-05 ± 3.2e-05 s⁻¹

Some of the entries so far, comma-delimited.
Variant,self-cleavage kobs at 2500 uM GlcN6P
A12C A53G A64U,4.05e-05 ± 2.3e-05 s⁻¹
A12U U30A G32C C58G,4.29e-05 ± 2.4e-05 s⁻¹

(further entries)

Variant	self-cleavage kobs at 2500 uM GlcN6P
G7A C16U A39U	5.51e-05 ± 3.2e-05 s⁻¹
A14C U46C	0.000148 ± 8.7e-05 s⁻¹
C11U U46G C50G	4.37e-05 ± 2.3e-05 s⁻¹
A14C G37U G66A C68G	3.48e-05 ± 2.8e-05 s⁻¹
A6G C50G U54C	3.58e-05 ± 1.9e-05 s⁻¹
A14C A39C G41U	0.000153 ± 0.00011 s⁻¹
G13C A14G C67G	2.4e-05 ± 2.4e-05 s⁻¹
C50A C67U C68A	0.000109 ± 6.6e-05 s⁻¹
A6U G21A C67G	3.34e-05 ± 2.3e-05 s⁻¹
A12C G66C	5.13e-05 ± 4.5e-05 s⁻¹
C10U G21U	2.82e-05 ± 1.7e-05 s⁻¹
G13C C16A A39G	3.56e-05 ± 1.8e-05 s⁻¹
C8U G62A C71U	3.88e-05 ± 3.4e-05 s⁻¹
A12U A39U U54C	0.0258 ± 0.016 s⁻¹
G13A C16A C68G	0.000767 ± 0.0004 s⁻¹
G7A C50G U54C G63A	6.37e-05 ± 3.4e-05 s⁻¹
G13U C61G C70U	9.54e-05 ± 5.5e-05 s⁻¹
A6U U31G C61G C70U	3.05e-05 ± 2.6e-05 s⁻¹
A6U A12C U56A	3.64e-05 ± 1.9e-05 s⁻¹
A6U G51C U56A U69G C70A	2.67e-05 ± 2.4e-05 s⁻¹
G13U A52U C68G	4.22e-05 ± 3.1e-05 s⁻¹
A15C C61G C68U	2.59e-05 ± 2.6e-05 s⁻¹
A15G C58A C68G	4.01e-05 ± 2e-05 s⁻¹

Variants of: B1
Test: self-cleavage kobs at 160 uM GlcN6P; higher = faster cleavage; RNA array
Details: with glucosamine-6-phosphate
Procedure, shortened: as §1

Variant	self-cleavage kobs at 160 uM GlcN6P
C11G C58A C68A	4.85e-05 ± 3.1e-05 s⁻¹
A12U C68A	2.39e-05 ± 1.8e-05 s⁻¹
A52U C68G	1.65e-05 ± 1.5e-05 s⁻¹
C11U C34G C50G C67G C68U	2.23e-05 ± 1.7e-05 s⁻¹
C16A C70U C71A	3.14e-05 ± 2.2e-05 s⁻¹
A48U U69C	1.82e-05 ± 1.3e-05 s⁻¹
A33C U55G	2.27e-05 ± 1.6e-05 s⁻¹
A39U A42U U55G G66U	2.69e-05 ± 1.5e-05 s⁻¹
U57A C61G C67U U69A	5.79e-05 ± 3.1e-05 s⁻¹
A42U U55C	1.92e-05 ± 1.4e-05 s⁻¹
U49G C67U	1.67e-05 ± 1.6e-05 s⁻¹
U55G C67A C68G	6.39e-05 ± 4.6e-05 s⁻¹
A6U C71G	1.88e-05 ± 1.3e-05 s⁻¹
C11A A12U C16U C70U	4.61e-05 ± 3.1e-05 s⁻¹
C16A C68U	1.79e-05 ± 1.3e-05 s⁻¹
C11A A64G	1.82e-05 ± 1.8e-05 s⁻¹
G59C C68A	1.76e-05 ± 1.7e-05 s⁻¹
U31G A39U C71G	1.67e-05 ± 1.1e-05 s⁻¹

Variant	self-cleavage kobs at 160 uM GlcN6P
G13A C34G C50U C67G	2.91e-05 ± 2.7e-05 s⁻¹
C10U A36U C70A	2.68e-05 ± 1.9e-05 s⁻¹
G26U C67G	5.12e-05 ± 2.9e-05 s⁻¹
C50A C67U C68A	0.00011 ± 5.9e-05 s⁻¹
A12C G66C	5.14e-05 ± 2.7e-05 s⁻¹
U46G C50A C67G	5.25e-05 ± 2.9e-05 s⁻¹
C8G A36C C70G	3.07e-05 ± 2.9e-05 s⁻¹
A12G A39C A42U	2.82e-05 ± 2.6e-05 s⁻¹
C8U A12U G37U C61A A64U C67G	5.32e-05 ± 2.8e-05 s⁻¹
C50U U54A C70U	4.13e-05 ± 2.3e-05 s⁻¹
U31C U47C	5.21e-05 ± 2.7e-05 s⁻¹
A48U U55A U69G	3.66e-05 ± 2.3e-05 s⁻¹
A15C C58G C70A	1.74e-05 ± 1.3e-05 s⁻¹
G13U G29U C70A	2.37e-05 ± 2.1e-05 s⁻¹
A39U G43A	2.55e-05 ± 1.3e-05 s⁻¹
A15G C58A C68G	7.69e-05 ± 4.1e-05 s⁻¹
G37U U49A C61G C70G	2.71e-05 ± 2.6e-05 s⁻¹

Two records picked at random from the list so far, as already listed:
Variant	self-cleavage kobs at 160 uM GlcN6P
A15G C58A C68G	7.69e-05 ± 4.1e-05 s⁻¹
A12C G66C	5.14e-05 ± 2.7e-05 s⁻¹

Variants of: B1
Test: self-cleavage kobs at 10000 uM GlcN6P; higher = faster cleavage; RNA array
Details: with glucosamine-6-phosphate
Procedure, shortened: as §1

Variant	self-cleavage kobs at 10000 uM GlcN6P
A12U C68A	0.00211 ± 0.0014 s⁻¹
G13C C58U C71U	1.68e-05 ± 1.3e-05 s⁻¹
A6G C50G U54C	2.24e-05 ± 2.2e-05 s⁻¹

Variants of: B1
Test: self-cleavage kobs at 640 uM GlcN6P; higher = faster cleavage; RNA array
Details: with glucosamine-6-phosphate
Procedure, shortened: as §1

Variant	self-cleavage kobs at 640 uM GlcN6P
C61A G63A C70G	3.07e-05 ± 2.4e-05 s⁻¹
G59U C67G	1.42e-05 ± 1.4e-05 s⁻¹
C68A C71G	0.00052 ± 0.00034 s⁻¹
G60U C61A C71G	2.69e-05 ± 2.2e-05 s⁻¹
A64C G66A	1.7e-05 ± 1.6e-05 s⁻¹
